Test results published in article PMC4205011.
These are yes or no findings as the source states them, for the method shown. Some results given as binding are weak or reduced against the parent protein; the word gives no strength.

The chains behind the UniProt entries cited, without tags or fusion partners.
UniProt P06537: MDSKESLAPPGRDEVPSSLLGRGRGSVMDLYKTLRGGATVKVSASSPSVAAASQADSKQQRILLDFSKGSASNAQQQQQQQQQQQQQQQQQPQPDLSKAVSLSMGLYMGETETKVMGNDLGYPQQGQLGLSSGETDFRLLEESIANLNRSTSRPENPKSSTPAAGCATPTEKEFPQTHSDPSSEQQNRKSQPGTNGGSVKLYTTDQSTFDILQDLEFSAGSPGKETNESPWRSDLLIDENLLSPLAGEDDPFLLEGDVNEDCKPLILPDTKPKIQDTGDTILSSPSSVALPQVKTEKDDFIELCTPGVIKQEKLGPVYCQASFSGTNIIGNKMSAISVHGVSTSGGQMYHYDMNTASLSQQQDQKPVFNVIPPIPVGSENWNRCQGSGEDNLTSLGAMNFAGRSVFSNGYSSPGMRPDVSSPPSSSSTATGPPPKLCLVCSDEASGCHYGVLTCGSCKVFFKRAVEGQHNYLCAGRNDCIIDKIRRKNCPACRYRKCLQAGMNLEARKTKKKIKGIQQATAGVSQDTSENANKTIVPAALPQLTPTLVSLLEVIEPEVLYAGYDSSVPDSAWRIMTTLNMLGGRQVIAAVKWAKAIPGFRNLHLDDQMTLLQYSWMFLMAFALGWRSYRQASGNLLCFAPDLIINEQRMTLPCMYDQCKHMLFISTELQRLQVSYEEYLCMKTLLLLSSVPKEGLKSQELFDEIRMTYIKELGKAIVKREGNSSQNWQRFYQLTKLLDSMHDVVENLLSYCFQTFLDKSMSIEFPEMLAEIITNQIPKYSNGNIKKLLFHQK
UniProt P28033: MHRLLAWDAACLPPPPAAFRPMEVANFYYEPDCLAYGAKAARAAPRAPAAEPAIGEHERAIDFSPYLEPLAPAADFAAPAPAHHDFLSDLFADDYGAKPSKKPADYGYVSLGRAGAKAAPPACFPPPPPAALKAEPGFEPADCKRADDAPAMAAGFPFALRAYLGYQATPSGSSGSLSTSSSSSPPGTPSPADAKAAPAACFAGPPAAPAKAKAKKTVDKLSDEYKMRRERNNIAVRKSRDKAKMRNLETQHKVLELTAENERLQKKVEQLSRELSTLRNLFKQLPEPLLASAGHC

Molecular target: glucocorticoid receptor (mouse (endogenous in BWTG3)) (UniProt P06537)
Assay: re-ChIP (sequential chromatin immunoprecipitation); BWTG3 cells treated with 10 µM DEX or vehicle for 2 hrs, cross-linked with 1% formaldehyde; first immunoprecipitation with anti-GR antibody, eluted with 10 mM dithiothreitol and 1% SDS, second immunoprecipitation with anti-C/EBPβ antibody or control IgG; read out by qPCR of the mouse Cbg promoter (regions P5 to P1)

- binding: binds
Substance: CAAT/enhancer binding protein beta (from UniProt P28033 1-296)
